From PMC3141008
No constants are given. Whether binding was seen depends on the method and setting. Binding seen in cells or lysates may run through a third protein. These calls come from enrichment with a bait or labelling near it, and not all partners need be listed.

Chains of the proteins cited; added tags and fusions are not shown.
UniProt Q9LQ02: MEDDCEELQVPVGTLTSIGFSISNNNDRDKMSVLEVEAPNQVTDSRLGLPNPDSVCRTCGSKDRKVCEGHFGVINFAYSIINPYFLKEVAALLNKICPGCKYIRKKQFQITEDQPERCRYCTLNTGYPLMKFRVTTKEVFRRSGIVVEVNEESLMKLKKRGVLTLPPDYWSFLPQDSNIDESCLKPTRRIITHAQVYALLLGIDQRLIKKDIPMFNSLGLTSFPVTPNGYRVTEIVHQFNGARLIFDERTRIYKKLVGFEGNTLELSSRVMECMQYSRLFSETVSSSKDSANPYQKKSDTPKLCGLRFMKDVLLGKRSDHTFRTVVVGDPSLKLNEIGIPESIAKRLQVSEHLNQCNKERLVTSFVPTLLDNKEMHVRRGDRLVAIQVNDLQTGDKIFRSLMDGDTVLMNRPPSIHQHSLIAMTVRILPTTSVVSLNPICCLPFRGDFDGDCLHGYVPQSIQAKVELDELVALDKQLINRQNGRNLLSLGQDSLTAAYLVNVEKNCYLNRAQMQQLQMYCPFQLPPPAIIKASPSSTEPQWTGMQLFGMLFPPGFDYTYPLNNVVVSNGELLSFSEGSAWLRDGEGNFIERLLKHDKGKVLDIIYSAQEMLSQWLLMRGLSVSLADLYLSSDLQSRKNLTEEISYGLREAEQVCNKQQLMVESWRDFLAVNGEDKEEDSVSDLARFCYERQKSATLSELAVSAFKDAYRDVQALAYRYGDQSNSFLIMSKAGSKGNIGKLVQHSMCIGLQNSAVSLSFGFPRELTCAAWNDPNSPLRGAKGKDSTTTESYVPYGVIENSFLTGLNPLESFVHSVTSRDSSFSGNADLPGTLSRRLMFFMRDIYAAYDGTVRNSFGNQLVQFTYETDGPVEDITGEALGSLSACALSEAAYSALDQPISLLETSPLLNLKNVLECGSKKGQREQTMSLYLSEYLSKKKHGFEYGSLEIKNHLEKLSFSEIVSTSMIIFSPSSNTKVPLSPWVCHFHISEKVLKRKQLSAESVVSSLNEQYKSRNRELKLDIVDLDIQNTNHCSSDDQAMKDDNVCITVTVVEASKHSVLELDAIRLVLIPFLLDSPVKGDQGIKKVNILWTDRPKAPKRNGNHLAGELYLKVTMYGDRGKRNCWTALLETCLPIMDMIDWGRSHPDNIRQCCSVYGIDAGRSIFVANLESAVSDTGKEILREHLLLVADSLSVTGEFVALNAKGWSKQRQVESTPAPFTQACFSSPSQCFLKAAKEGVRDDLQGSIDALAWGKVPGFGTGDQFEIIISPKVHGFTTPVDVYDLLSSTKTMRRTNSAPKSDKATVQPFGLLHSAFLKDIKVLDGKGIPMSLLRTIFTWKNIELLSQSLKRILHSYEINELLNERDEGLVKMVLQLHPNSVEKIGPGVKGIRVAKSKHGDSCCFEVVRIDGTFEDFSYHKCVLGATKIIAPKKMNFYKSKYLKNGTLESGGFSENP

target: NUCLEAR RNA POLYMERASE D1 (NRPD1), carboxy-terminal 3×Flag tagged (Arabidopsis thaliana) (UniProt Q9LQ02); assay: affinity purification with mass spectrometry; ~10 g flower tissue of NRPD1-3×Flag and NRPD1-3×Flag-BLRP T4 plants (Col as negative control); lysis buffer 50 mM Tris pH7.6, 150 mM NaCl, 5 mM MgCl2, 10% glycerol, 0.1% NP-40; Dynabeads conjugated with a Flag antibody, 4°C 2.5 hours; eluted with 3×Flag peptide

| Binder | binding |
| --- | --- |
| NRPB9A/E9A (protein, UniProt Q6NLH0 1-114) MSTMKFCRECNNILYPKEDKEQKILLYACRNCDHQEVADNSCVYRNEVHHSVSERTQILTDVASDPTLPRTKAVRCSKCQHREAVFFQATARGEEGMTLFFVCCNPNCGHRWRE | binds |
| NRPB9B/D9B/E9B (protein, UniProt Q8L5V0 1-114) MSTMKFCRECNNILYPKEDKEQSILLYACRNCDHQEAADNNCVYRNEVHHSVSEQTQILSDVASDPTLPRTKAVRCAKCQHGEAVFFQATARGEEGMTLFFVCCNPNCSHRWRE | binds |
| NRPB11/D11/E11 (protein, UniProt Q38859 1-116) MNAPERYERFVVPEGTKKVSYDRDTKIINAASFTVEREDHTIGNIVRMQLHRDENVLFAGYQLPHPLKYKIIVRIHTTSQSSPMQAYNQAINDLDKELDYLKNQFEAEVAKFSNQF | binds |
| RNA-DIRECTED DNA …ON 4 (RDM4)/… IN MERISTEM … 4 (DMS4) (protein, UniProt Q8GYP3 1-346) MDGVGESSTQNEVEEKPVIVRVKRKVGQSLLDAFWLEINERPLKRPTLDFSKLSISDSGERGPSVAEDVKPKKVLVRHLETVTDSETTADIIHSFFESDHNEKSCSKGKFEERKIAFKKDNRKEQRLTKSVQKQQIASENARFEQIWRSRKGNKEGIHEKCHFFDVIRVDTEERRDNAQEFTSLEDQKMLASFLPLLRECIPTAAEEIEADIQSSHTEEYVYDYYAVNEEMDISEDSSKNQFPLVIVEDEEEFCDGSDESDYDSEDSNAEDHPKTDYPEEEEEEEEEDDDDDDDDESEEEKSEASDESDDEETSKRHVRSVLGDDEFDDYAEDVYGYSESDEEFES | binds |
| CLASSY 1 (CLSY1), endogenous (protein, UniProt Q9M297 1-1256) MKRKHYFEFNHPFNPCPFEVFCWGTWKAVEYLRIENGTMTMRLLENGQVLDDIKPFQRLRIRSRKATLIDCTSFLRPGIDVCVLYQRDEETPEPVWVDARVLSIERKPHESECLCTFHVSVYIDQGCIGLEKHRMNKVPVLVGLNEIAILQKFCKEQSLDRYYRWRYSEDCSSLVKTRLNLGKFLPDLTWLLVTSVLKNIVFQIRTVHEKMVYQIVTDEDCEGSSSSLSAMNITVEDGVVMSKVVLFNPAEDTCQDSDVKEEIEEEVMELRRSKRRSGRPERYGDSEIQPDSKDGWVRMMPYRYNIWNVSSDDDDEEEDCEDDKDTDDDLYLPLSHLLRKKGSKKGFSKDKQREIVLVDKTERKKRKKTEGFSRSCELSVIPFTPVFEPIPLEQFGLNANSLCGGVSGNLMDEIDKYRSKAAKYGKKKKKKIEMEEMESDLGWNGPIGNVVHKRNGPHSRIRSVSRETGVSEEPQIYKKRTLSAGAYNKLIDSYMSRIDSTIAAKDKATNVVEQWQGLKNPASFSIEAEERLSEEEEDDGETSENEILWREMELCLASSYILDDHEVRVDNEAFHKATCDCEHDYELNEEIGMCCRLCGHVGTEIKHVSAPFARHKKWTTETKQINEDDINTTIVNQDGVESHTFTIPVASSDMPSAEESDNVWSLIPQLKRKLHLHQKKAFEFLWKNLAGSVVPAMMDPSSDKIGGCVVSHTPGAGKTFLIIAFLASYLKIFPGKRPLVLAPKTTLYTWYKEFIKWEIPVPVHLLHGRRTYCMSKEKTIQFEGIPKPSQDVMHVLDCLDKIQKWHAQPSVLVMGYTSFLTLMREDSKFAHRKYMAKVLRESPGLLVLDEGHNPRSTKSRLRKALMKVDTDLRILLSGTLFQNNFCEYFNTLCLARPKFVHEVLVELDKKFQTNQAEQKAPHLLENRARKFFLDIIAKKIDTKVGDERLQGLNMLRNMTSGFIDNYEGSGSGSGDVLPGLQIYTLLMNSTDVQHKSLTKLQNIMSTYHGYPLELELLITLAAIHPWLVKTTTCCAKFFNPQELLEIEKLKHDAKKGSKVMFVLNLVFRVVKREKILIFCHNIAPIRLFLELFENVFRWKRGRELLTLTGDLELFERGRVIDKFEEPGGQSRVLLASITACAEGISLTAASRVIMLDSEWNPSKTKQAIARAFRPGQQKVVYVYQLLSRGTLEEDKYRRTTWKEWVSSMIFSEEFVEDPSQWQAEKIEDDVLREIVEEDKVKSFHMIMKNEKASTGG | binds |
| CLSY2 (protein, UniProt F4K493 1-1261) MKKRGFYNLKHPFDPCPFEFFCSGTWKPVEYMRIEDGMMTIRLLENGYVLEDIRPFQRLRLRSRKAALSDCICFLRPDIDVCVLYRIHEDDLEPVWVDARIVSIERKPHESECSCKINVRIYIDQGCIGSEKQRINRDSVVIGLNQISILQKFYKEQSTDQFYRWRFSEDCTSLMKTRLSLGKFLPDLSWLTVTSTLKSIVFQIRTVQTKMVYQIVTDEEGSSSTLSSMNITLEDGVSLSKVVKFNPADILDDSQDLEIKQETDYYQEEDEVVELRRSKRRNVRPDIYTGCDYEPDTIDGWVRMMPYQFGKCAVNVESDEDEDDNNEDGDTNDDLYIPLSRLFIKKKKTNSREAKPKSRKGEIVVIDKRRVHGFGRKERKSELSVIPFTPVFEPIPLEQFGLNANSFGGGGSFSRSQYFDETEKYRSKGMKYGKKMTEMEEMMEADLCWKGPNQVKSFQKRTSRSSRSVAPKTEDSDEPRVYKKVTLSAGAYNKLIDTYMNNIESTIAAKDEPTSVVDQWEELKKTNFAFKLHGDMEKNLSEDGEGETSENEMLWREMELCLASSYILDDNEVRVDNEAFEKARSGCEHDYRLEEEIGMCCRLCGHVGSEIKDVSAPFAEHKKWTIETKHIEEDDIKTKLSHKEAQTKDFSMISDSSEMLAAEESDNVWALIPKLKRKLHVHQRRAFEFLWRNVAGSVEPSLMDPTSGNIGGCVISHSPGAGKTFLIIAFLTSYLKLFPGKRPLVLAPKTTLYTWYKEFIKWEIPVPVHLIHGRRTYCTFKQNKTVQFNGVPKPSRDVMHVLDCLEKIQKWHAHPSVLVMGYTSFTTLMREDSKFAHRKYMAKVLRESPGLLVLDEGHNPRSTKSRLRKALMKVGTDLRILLSGTLFQNNFCEYFNTLCLARPKFIHEVLMELDQKFKTNHGVNKAPHLLENRARKLFLDIIAKKIDASVGDERLQGLNMLKNMTNGFIDNYEGSGSGSGDALPGLQIYTLVMNSTDIQHKILTKLQDVIKTYFGYPLEVELQITLAAIHPWLVTSSNCCTKFFNPQELSEIGKLKHDAKKGSKVMFVLNLIFRVVKREKILIFCHNIAPIRMFTELFENIFRWQRGREILTLTGDLELFERGRVIDKFEEPGNPSRVLLASITACAEGISLTAASRVIMLDSEWNPSKTKQAIARAFRPGQQKVVYVYQLLSRGTLEEDKYRRTTWKEWVSCMIFSEEFVADPSLWQAEKIEDDILREIVGEDKVKSFHMIMKNEKASTG | binds |
| CHROMATIN REMODELING 31 (CHR31) (protein, UniProt F4I8S3 1-1410) MECIGKRVKSRSWQRLQAVNKRKKMETVAPVTSPPKKRRQKKPKNYDSDIEDITPTCNDSVPPPQVSNMYSVPNNSVKESFSRIMRDLNVEKKSGPSSSRLTDGSEQNPCLKERSFRVSDLGVEKKCSPEITDLDVGIPVPRFSKLKDVSEQKNTCLMQKSSPEIADLDLVISVPSSSVLKDVSEEIRFLKDKCSPEIRGLVLEKSVPGEIEILSDSESETEARRRASAKKKLFEESSRIVESISDGEDSSSETDEEEEENQDSEDNNTKDNVTVESLSSEDPSSSSSSSSSSSSSSSSSSSDDESYVKEVVGDNRDDDDLRKASSPIKRVSLVERKALVRYKRSGSSLTKPRERDNKIQKLNHREEEKKERQREVVRVVTKQPSNVVYTCAHCGKENTGNPESHSSFIRPHSIRDEIEDVNNFASTNVSKYEDSVSINSGKTTGAPSRPEVENPETGKELNTPEKPSISRPEIFTTEKAIDVQVPEEPSRPEIYSSEKAKEVQAPEMPSRPEVFSSEKAKEIQVPEMPSIPEIQNSEKAKEVQANNRMGLTTPAVAEGLNKSVVTNEHIEDDSDSSISSGDGYESDPTLKDKEVKINNHSDWRILNGNNKEVDLFRLLVNSVWEKGQLGEEDEADELVSSAEDQSQEQAREDHRKYDDAGLLIIRPPPLIEKFGVEEPQSPPVVSEIDSEEDRLWEELAFFTKSNDIGGNELFSNVEKNISANETPAAQCKKGKHDLCIDLEVGLKCMHCGFVEREIRSMDVSEWGEKTTRERRKFDRFEEEEGSSFIGKLGFDAPNNSLNEGCVSSEGTVWDKIPGVKSQMYPHQQEGFEFIWKNLAGTIMLNELKDFENSDETGGCIMSHAPGTGKTRLTIIFLQAYLQCFPDCKPVIIAPASLLLTWAEEFKKWNISIPFHNLSSLDFTGKENSAALGLLMQKNATARSNNEIRMVKIYSWIKSKSILGISYNLYEKLAGVKDEDKKTKMVREVKPDKELDDIREILMGRPGLLVLDEAHTPRNQRSCIWKTLSKVETQKRILLSGTPFQNNFLELCNVLGLARPKYLERLTSTLKKSGMTVTKRGKKNLGNEINNRGIEELKAVMLPFVHVHKGSILQSSLPGLRECVVVLNPPELQRRVLESIEVTHNRKTKNVFETEHKLSLVSVHPSLVSRCKISEKERLSIDEALLAQLKKVRLDPNQSVKTRFLMEFVELCEVIKEKVLVFSQYIDPLKLIMKHLVSRFKWNPGEEVLYMHGKLEQKQRQTLINEFNDPKSKAKVFLASTKACSEGISLVGASRVILLDVVWNPAVERQAISRAYRIGQKRIVYTYHLVAKGTPEGPKYCKQAQKDRISELVFACSSRHDKGKEKIAEAVTEDKVLDTMVEHSKLGDMFDNLIVQPKEADLVEGFSILMP | binds |
| CHR40 (protein, UniProt Q9LK10 1-1132) MDMTSCVARRTRSRTESYLNSILNKSKGISGEEEDQSLGCVNSRTEKRRVNMRDACSPSPRKKKRRRRKDDDDDVVFVRTEYPEGKRDDENVGSTSGNLQSKSFDFGDRVCDFDADDRNLGCEEKASNFNPIDDDDDVVFVGTVQRENDHVEDDDNVGSASVISPRVCDFDEDDAKVSGKENPLSPDDDDDVVFLGTIAGENQHVEDVNAGSEVCDILLDDANLRGEEKTYVSDEVVSLSSSSDDEEDPLEELGTDSREEVSGEDRDSGESDMDEDANDSDSSDYVGESSDSSDVESSDSDFVCSEDEEGGTRDDATCEKNPSEKVYHHKKSRTFRRKHNFDVINLLAKSMLESKDVFKEDIFSWDKIAEVDSREDPVVRESSSEKVNEHGKPRERRSFHRVREKNHLNGESFYGGEKLCDGEETINYSTEDSPPLNLRFGCEEPVLIEKTEEEKELDSLWEDMNVALTLEGMHSSTPDKNGDMLCSKGTHDFVLDDEIGLKCVHCAYVAVEIKDISPAMDKYRPSVNDNKKCSDRKGDPLPNRLEFDASDPSSFVAPLDNIEGTVWQYVPGIKDTLYPHQQEGFEFIWKNLAGTTKINELNSVGVKGSGGCIISHKAGTGKTRLTVVFLQSYLKRFPNSHPMVIAPATLMRTWEDEVRKWNVNIPFYNMNSLQLSGYEDAEAVSRLEGNRHHNSIRMVKLVSWWKQKSILGISYPLYEKLAANKNTEGMQVFRRMLVELPGLLVLDEGHTPRNQSSLIWKVLTEVRTEKRIFLSGTLFQNNFKELSNVLCLARPADKDTISSRIHELSKCSQEGEHGRVNEENRIVDLKAMIAHFVHVHEGTILQESLPGLRDCVVVLNPPFQQKKILDRIDTSQNTFEFEHKLSAVSVHPSLYLCCNPTKKEDLVIGPATLGTLKRLRLKYEEGVKTKFLIDFIRISGTVKEKVLVYSQYIDTLKLIMEQLIAECDWTEGEQILLMHGKVEQRDRQHMIDNFNKPDSGSKVLLASTKACSEGISLVGASRVVILDVVWNPSVESQAISRAFRIGQKRAVFIYHLMVKDTSEWNKYCKQSEKHRISELVFSSTNEKDKPINNEVVSKDRILDEMVRHEKLKHIFEKILYHPKKSDMNTSFF | binds |
